Holding throughout (type): functional
The subject of one assay is Staphylococcus aureus. Briefly: Antimicrobial activity against Staphylococcus aureus IFO 3060 at 200 ug/disc measured after 24 hrs by agar disc-diffusion method.
Another assay deals with Bacillus subtilis. Briefly: Antimicrobial activity against Bacillus subtilis IFO 3007 at 200 ug/disc measured after 24 hrs by agar disc-diffusion method.
Another assay has as its system Escherichia coli. The experiment in a line: Antimicrobial activity against Escherichia coli IFO 3301 at 200 ug/disc measured after 24 hrs by agar disc-diffusion method. A general note: A growth-free zone around the sample is the usual read-out of agar diffusion tests.
A further assay has as its system Pseudomonas aeruginosa. Briefly: Antimicrobial activity against Pseudomonas aeruginosa IFO 3448 at 200 ug/disc measured after 24 hrs by agar disc-diffusion method.

Here are results for 1 sequence from ChEMBL document CHEMBL3860041, “Synthesis, biological evaluation and molecular modeling study of some new methoxylated 2-benzylthio-quinazoline-4(3H)-ones as nonclassical antifolates” (Bioorg Med Chem Lett, 2016).

As to GENTAMICIN, the inhibition zone (IZ) in the assay on Staphylococcus aureus is 26.5 mm; with Bacillus subtilis, 25 mm; in the assay on Escherichia coli, 20.8 mm; with Pseudomonas aeruginosa, 19 mm.
